Results deposited as PubChem BioAssay AID743121 (NCATS, 2013).

Aim: 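Genes whose silencing strengthens cell killing by camptothecin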 (primary screen)
System: MDA-MB-231 cells, a human breast cancer line
Knock-down reagent: single siRNA against human genes, 20 nM siRNA (0.8 pmol per well)
Timing: 120 h (drug added 48 h after transfection, read 72 h later)
Treatment: camptothecin 20 nM (about EC30) for 72 h; vehicle 0.1% DMSO in parallel plates
Detection: 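Cell viability by ATP luminescence (CellTiter-Glo) as % of non-targeting siRNA wells, and the log2 ratio of viability without drug over viability with camptothecin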
Direction: log2 vehicle/camptothecin viability: higher = stronger sensitisation to camptothecin; viability with camptothecin and viability without drug: higher = more viable cells
Rule for the call: 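Each gene scored by redundant siRNA activity (RSA) over its individual siRNA ratios; a gene is called active at p < 0.001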
The deposit covers about 26,000 reagents; this is a random part of them. 167 of them (0.63%) were called active. 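Calls are per gene from RSA p-values that are not deposited; an individual active-marked siRNA can sensitise only weakly.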

target gene,PubChem SID,log2 vehicle/camptothecin viability,viability with camptothecin (% of control),viability without drug (% of control),Outcome
PTPRT (GeneID 11122),SID164415696,-0.448,104,76,inactive
PTPRT (GeneID 11122),SID164415699,-0.12,54.8,50.4,inactive
PTPRT (GeneID 11122),SID164415701,1.17,18.5,41.5,inactive
PTPRT (GeneID 11122),SID164415706,-0.107,75,69.7,inactive
SLC26A4 (GeneID 5172),SID164380099,0.111,90.9,98.1,inactive
SLC26A4 (GeneID 5172),SID164380101,-0.133,92.1,83.9,inactive
SLC26A4 (GeneID 5172),SID164380102,-0.201,118,103,inactive
PML (GeneID 5371),SID164381360,-0.143,103,93.4,inactive
PML (GeneID 5371),SID164381363,-0.647,130,83.1,inactive
PML (GeneID 5371),SID164381364,0.181,37.8,42.9,inactive
PDPN (GeneID 10630),SID164412453,-0.617,39.3,25.6,inactive
PDPN (GeneID 10630),SID164412455,-0.0779,92,87.1,inactive
PDPN (GeneID 10630),SID164412456,-0.304,73.2,59.3,inactive
PDPN (GeneID 10630),SID164412460,0.18,34.9,39.5,inactive
USP3 (GeneID 9960),SID164407701,0.00552,95,95.4,inactive
USP3 (GeneID 9960),SID164407702,-0.539,106,72.7,inactive
USP3 (GeneID 9960),SID164407704,-0.162,112,99.7,inactive
VARS2 (GeneID 57176),SID164493144,-0.515,98.4,68.8,inactive
VARS2 (GeneID 57176),SID164493145,0.0819,55.7,58.9,inactive
VARS2 (GeneID 57176),SID164493148,-0.303,67.8,54.9,inactive
VARS2 (GeneID 57176),SID164493151,-0.246,106,89.7,inactive
BFAR (GeneID 51283),SID164473038,-0.43,82,60.9,inactive
BFAR (GeneID 51283),SID164473039,-0.271,74,61.3,inactive
BFAR (GeneID 51283),SID164473042,0.0748,45.3,47.7,inactive
INPP5B (GeneID 3633),SID164371675,-0.302,65.6,53.2,inactive
INPP5B (GeneID 3633),SID164371676,-0.0721,90.2,85.8,inactive
INPP5B (GeneID 3633),SID164371678,-0.013,91,90.2,inactive
INPP5B (GeneID 3633),SID164371681,0.0644,46.6,48.7,inactive
MMP26 (GeneID 56547),SID164490445,-0.411,86.8,65.3,inactive
MMP26 (GeneID 56547),SID164490447,-0.311,55.5,44.7,inactive
MMP26 (GeneID 56547),SID164490448,-0.133,105,96,inactive
MMP26 (GeneID 56547),SID164490449,0.368,33.6,43.4,inactive
SLC45A2 (GeneID 51151),SID164472261,-0.169,83.1,73.9,inactive
SLC45A2 (GeneID 51151),SID164472266,-0.367,101,78.4,inactive
SLC45A2 (GeneID 51151),SID164472267,-0.4,88.5,67.1,inactive
SLC45A2 (GeneID 51151),SID164472269,0.235,86.7,102,inactive
CRB1 (GeneID 23418),SID164447917,-0.367,81.6,63.2,inactive
CRB1 (GeneID 23418),SID164447918,-0.258,75.3,63,inactive
CRB1 (GeneID 23418),SID164447919,-0.219,109,93.5,inactive
CRB1 (GeneID 23418),SID164447920,0.112,114,123,inactive
TMEM87B (GeneID 84910),SID164547281,-0.185,97.1,85.4,inactive
TMEM87B (GeneID 84910),SID164547285,-0.202,74.1,64.4,inactive
TMEM87B (GeneID 84910),SID164547286,-0.268,103,85.8,inactive
CYP51A1 (GeneID 1595),SID164360903,-0.371,89.8,69.4,inactive
CYP51A1 (GeneID 1595),SID164360904,1.16,21.1,47.2,inactive
CYP51A1 (GeneID 1595),SID164360905,0.158,88.6,98.8,inactive
CYP51A1 (GeneID 1595),SID164360906,-0.054,101,96.8,inactive

Targets above whose target name begins with U or u:
target gene,PubChem SID,log2 vehicle/camptothecin viability,viability with camptothecin (% of control),viability without drug (% of control),Outcome
USP3 (GeneID 9960),SID164407701,0.00552,95,95.4,inactive
USP3 (GeneID 9960),SID164407702,-0.539,106,72.7,inactive
USP3 (GeneID 9960),SID164407704,-0.162,112,99.7,inactive

Next results follow.
target gene,PubChem SID,log2 vehicle/camptothecin viability,viability with camptothecin (% of control),viability without drug (% of control),Outcome
TRIM36 (GeneID 55521),SID164485004,0.232,76,89.3,inactive
TRIM36 (GeneID 55521),SID164485005,-0.0327,81.9,80.1,inactive
TRIM36 (GeneID 55521),SID164485006,-0.232,100,85.5,inactive
TRIM36 (GeneID 55521),SID164485012,0.0742,103,109,inactive
TRIM36 (GeneID 55521),SID164485013,-0.188,80.6,70.7,inactive
TRIM36 (GeneID 55521),SID164485014,-0.127,107,98.4,inactive
TRIM36 (GeneID 55521),SID164485016,-0.15,118,106,inactive
TRIM36 (GeneID 55521),SID164485022,0.324,47.8,59.9,inactive
NRCAM (GeneID 4897),SID164378477,0.0184,96.8,98.1,inactive
NRCAM (GeneID 4897),SID164378478,0.0618,72.6,75.8,inactive
NRCAM (GeneID 4897),SID164378480,0.0464,110,113,inactive
NRCAM (GeneID 4897),SID164378482,-0.159,96.5,86.4,inactive
PDZD8 (GeneID 118987),SID164565699,-0.524,64.5,44.8,inactive
PDZD8 (GeneID 118987),SID164565700,-0.0678,87.9,83.8,inactive
PDZD8 (GeneID 118987),SID164565701,0.00943,74.2,74.7,inactive
PDZD8 (GeneID 118987),SID164565704,-0.163,83.2,74.3,inactive
TP53I3 (GeneID 9540),SID164404430,0.275,61.3,74.2,inactive
TP53I3 (GeneID 9540),SID164404431,0.0187,60.3,61.1,inactive
TP53I3 (GeneID 9540),SID164404432,0.28,54.8,66.5,inactive
TP53I3 (GeneID 9540),SID164404433,0.151,65.1,72.3,inactive
ABCC12 (GeneID 94160),SID164553731,0.245,83.4,98.9,inactive
ABCC12 (GeneID 94160),SID164553732,-0.0695,87.6,83.5,inactive
ABCC12 (GeneID 94160),SID164553734,-0.148,76.4,69,inactive
TAS2R3 (GeneID 50831),SID164470695,-0.226,40.8,34.9,inactive
TAS2R3 (GeneID 50831),SID164470697,-0.0943,102,95.1,inactive
TAS2R3 (GeneID 50831),SID164470699,0.0991,86.9,93.1,inactive
TAS2R3 (GeneID 50831),SID164470704,0.16,62.1,69.3,inactive
CAV1 (GeneID 857),SID164356689,-0.118,107,98.8,inactive
CAV1 (GeneID 857),SID164356692,-0.367,79.9,61.9,inactive
CAV1 (GeneID 857),SID164356695,0.484,61.4,85.9,inactive
YWHAH (GeneID 7533),SID164394325,-0.219,66.1,56.8,inactive
YWHAH (GeneID 7533),SID164394326,-0.0842,96.1,90.7,inactive
YWHAH (GeneID 7533),SID164394327,0.0245,81.6,83,inactive
YWHAH (GeneID 7533),SID164394328,0.0493,49.1,50.8,inactive
PRKCZ (GeneID 5590),SID164382670,0.0972,50.2,53.7,inactive
PRKCZ (GeneID 5590),SID164382671,0.0428,74.6,76.8,inactive
PRKCZ (GeneID 5590),SID164382673,0.0262,76.2,77.6,inactive
PRKCZ (GeneID 5590),SID164382676,0.00798,94.6,95.1,inactive
SLC25A12 (GeneID 8604),SID164398643,-0.0886,127,119,inactive
SLC25A12 (GeneID 8604),SID164398644,0.173,64.1,72.2,inactive
SLC25A12 (GeneID 8604),SID164398646,-0.103,104,96.8,inactive
SLC25A12 (GeneID 8604),SID164398648,-0.119,85,78.3,inactive
